# Test results: paper PMC7862700
# The chains behind the UniProt entries cited, without tags or fusion partners. Where a name states a change or a piece, a line headed by the entry shows the natural chain unless it says otherwise.
# UniProt Q00613: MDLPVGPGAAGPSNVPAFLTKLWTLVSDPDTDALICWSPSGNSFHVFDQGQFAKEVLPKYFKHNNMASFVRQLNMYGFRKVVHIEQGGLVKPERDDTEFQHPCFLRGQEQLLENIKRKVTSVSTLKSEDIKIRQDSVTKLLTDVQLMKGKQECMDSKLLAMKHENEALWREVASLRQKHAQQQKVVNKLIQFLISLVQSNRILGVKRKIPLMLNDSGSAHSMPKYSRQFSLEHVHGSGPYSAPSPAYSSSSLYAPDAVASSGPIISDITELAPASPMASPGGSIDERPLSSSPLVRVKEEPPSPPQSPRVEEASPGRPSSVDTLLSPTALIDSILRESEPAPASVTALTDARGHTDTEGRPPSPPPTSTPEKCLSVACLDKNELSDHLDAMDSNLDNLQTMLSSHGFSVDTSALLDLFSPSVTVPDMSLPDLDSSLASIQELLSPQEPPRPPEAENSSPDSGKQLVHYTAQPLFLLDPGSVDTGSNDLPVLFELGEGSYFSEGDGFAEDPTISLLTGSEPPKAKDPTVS
# The entries are a selection whose mix differs from that of the whole data set. For part of these data: At the low end of the ranking, values are background and their order means little. The list shows a part of the results. For part of these data: The source does not settle which construct or isoform was used.
# Target: HSF1 (UniProt Q00613)
# Assay: DAPPL (digital affinity profiling via proximity ligation, sequencing)
# Conditions: 10 mM Tris-HCl pH 7.5, 50 mM NaCl, 1 mM DTT, 4% glycerol, room temperature, 30 min; GST-TFs on glutathione beads, 16-mer random dsDNA library, 0.1% …; high values mean tight binding; double strand, one strand shown; scale: fold enrichment (6-mer frequency, TF over GST control)
row,Sequence,binding signal
1,CCTGAG,0.743
2,GAGTGT,0.491
3,CAGGTA,0.737
4,CAGCCA,0.709
5,CAGTCT,0.774
6,GACTCA,0.87
7,CAGTTT,0.814
8,TCAGGT,0.821
9,ATCAGT,0.821
10,CGCCAG,0.646
11,CCAGTA,0.902
12,GCCCAG,0.794
13,AACGAG,0.847
14,CAGTTA,0.684
15,TCGTGA,0.428
16,CGGCCA,0.651
17,AGGCAA,0.667
18,GGCGTG,0.282
19,TGTCGA,0.908
20,CAGGAG,0.247

row,Sequence,binding signal
1,TGAGGC,0.426
2,ACCCAG,0.748
3,CGAGGC,0.648
4,GGTAGG,0.553
5,AGGGCG,0.469
6,AGTGGA,0.698
7,CGCGGT,0.707
8,GGGTCC,0.627
9,GGTTAG,0.707
10,GCGTAG,0.745
11,AAGGTG,0.856
12,CAGCGA,0.832
13,AGCCAT,0.791
14,AGTTAG,0.757
15,CCGGGA,0.392
16,AGTGGG,0.461
17,TGAGAA,0.945
18,AGGGTG,0.629
19,AAAGAG,0.955

# Target: T1, ELF2 (UniProt Q15723)
# T1 sequence: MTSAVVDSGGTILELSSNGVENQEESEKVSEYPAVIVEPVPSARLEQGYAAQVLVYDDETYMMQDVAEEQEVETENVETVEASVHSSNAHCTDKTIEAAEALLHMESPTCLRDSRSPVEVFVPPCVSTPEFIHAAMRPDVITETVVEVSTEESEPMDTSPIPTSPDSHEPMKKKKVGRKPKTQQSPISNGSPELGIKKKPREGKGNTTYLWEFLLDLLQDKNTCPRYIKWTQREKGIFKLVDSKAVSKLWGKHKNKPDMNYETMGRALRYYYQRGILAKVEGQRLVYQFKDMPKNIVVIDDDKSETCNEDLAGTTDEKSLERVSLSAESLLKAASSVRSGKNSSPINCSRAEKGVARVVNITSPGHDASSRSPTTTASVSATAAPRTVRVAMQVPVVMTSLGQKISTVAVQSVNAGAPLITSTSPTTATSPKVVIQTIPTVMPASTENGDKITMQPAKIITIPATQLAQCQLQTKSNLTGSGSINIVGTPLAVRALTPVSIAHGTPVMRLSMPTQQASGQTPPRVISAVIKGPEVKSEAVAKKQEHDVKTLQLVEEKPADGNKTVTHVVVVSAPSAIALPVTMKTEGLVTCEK
# Assay: as above
# Conditions: 10 mM Tris-HCl pH 7.5, 50 mM NaCl, 1 mM DTT, 4% glycerol, room temperature, 30 min; GST-TFs on glutathione beads, 16-mer random dsDNA library, 0.1% …; high values mean tight binding; double strand, one strand shown; scale: fold enrichment (6-mer frequency, TF over GST control)
row,Sequence,binding signal
1,CCTGAG,0.809
2,GAGTGT,0.501
3,CAGGTA,0.787
4,CAGCCA,0.787
5,CAGTCT,0.697
6,GACTCA,0.905
7,CAGTTT,0.882
8,TCAGGT,0.83
9,ATCAGT,0.828
10,CGCCAG,0.662
11,CCAGTA,0.671
12,GCCCAG,0.72
13,AACGAG,0.779
14,CAGTTA,0.699
15,TCGTGA,0.309
16,CGGCCA,0.75
17,AGGCAA,0.712
18,GGCGTG,0.314
19,TGTCGA,0.8
20,CAGGAG,0.253

row,Sequence,binding signal
1,TGAGGC,0.452
2,ACCCAG,0.713
3,CGAGGC,0.626
4,GGTAGG,0.651
5,AGGGCG,0.58
6,AGTGGA,0.755
7,CGCGGT,0.898
8,GGGTCC,0.805
9,GGTTAG,0.726
10,GCGTAG,0.802
11,AAGGTG,0.864
12,CAGCGA,0.808
13,AGCCAT,0.824
14,AGTTAG,0.802
15,CCGGGA,0.572
16,AGTGGG,0.606
17,TGAGAA,0.678
18,AGGGTG,0.711
19,AAAGAG,0.867
